Results: paper PMC6521028
No constants are given. Whether binding was seen depends on the method and setting. Binding seen in cells or lysates may run through a third protein. For some of these results: A result given as binding can be weak or reduced; the word gives no strength. Sequences can lack the tags named with a protein.

Legend:
[1] = target: T1, Flag-tagged porcine IRF3 (pIRF3) (porcine) (UniProt Q764M6); assay: co-IP; HEK293T cells cotransfected for 28 h; lysis buffer 50 mM Tris-HCl pH 7.4, 150 mM NaCl, 1% NP-40, 10% glycerin, 0.1% SDS, 2 mM Na2EDTA; precipitated at 4°C with anti-Flag affinity gel; western blot
T1 sequence: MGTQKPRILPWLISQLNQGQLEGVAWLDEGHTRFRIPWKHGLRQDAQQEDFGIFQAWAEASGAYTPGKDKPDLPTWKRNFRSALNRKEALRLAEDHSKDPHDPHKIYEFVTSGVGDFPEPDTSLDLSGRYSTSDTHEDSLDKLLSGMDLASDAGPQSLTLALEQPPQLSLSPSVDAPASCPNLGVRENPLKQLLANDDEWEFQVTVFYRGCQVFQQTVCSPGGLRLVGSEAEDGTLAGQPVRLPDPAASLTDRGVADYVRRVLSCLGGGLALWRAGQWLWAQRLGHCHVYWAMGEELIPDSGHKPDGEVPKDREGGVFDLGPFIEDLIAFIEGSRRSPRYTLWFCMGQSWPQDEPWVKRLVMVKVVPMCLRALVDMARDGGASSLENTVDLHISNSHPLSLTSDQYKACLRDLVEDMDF

[2] = target: T2, HA-tagged porcine Riplet (pRiplet) (porcine) (UniProt F1RKW3); assay: co-IP; HEK293T cells cotransfected for 28 h; same lysis buffer; precipitated at 4°C with anti-HA affinity gel; western blot
T2 sequence: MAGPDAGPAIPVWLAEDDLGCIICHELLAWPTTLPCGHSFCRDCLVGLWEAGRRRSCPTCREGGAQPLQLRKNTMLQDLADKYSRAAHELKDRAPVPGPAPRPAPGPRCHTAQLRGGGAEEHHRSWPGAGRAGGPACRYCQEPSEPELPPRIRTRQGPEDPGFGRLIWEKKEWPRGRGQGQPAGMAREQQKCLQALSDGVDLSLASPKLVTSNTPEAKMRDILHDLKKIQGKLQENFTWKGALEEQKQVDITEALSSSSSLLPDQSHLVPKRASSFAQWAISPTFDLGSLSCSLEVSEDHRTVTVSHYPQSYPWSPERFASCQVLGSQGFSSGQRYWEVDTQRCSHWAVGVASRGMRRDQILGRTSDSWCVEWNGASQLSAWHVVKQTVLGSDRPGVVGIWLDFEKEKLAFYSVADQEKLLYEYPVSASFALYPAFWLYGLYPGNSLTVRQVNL

[3] = target: Myc-tagged PDCoV nucleocapsid (N) protein (porcine deltacoronavirus (PDCoV)); assay: co-IP; HEK293T cells cotransfected for 28 h; same lysis buffer; precipitated with mouse Myc monoclonal antibody and protein A+G agarose beads; western blot
[4] = target: Flag-pRIG-I-CTD (internal repressor domain, RD) (porcine); assay: co-IP; HEK293T cells cotransfected for 28 h; lysis buffer 50 mM Tris-HCl pH 7.4, 150 mM NaCl, 1% NP-40, 10% glycerin, 0.1% SDS, 2 mM Na2EDTA; precipitated at 4°C with anti-Flag affinity gel; western blot

In the case of “HA-tagged PDCoV nucleocapsid (N) protein (porcine deltacoronavirus (PDCoV))”, the binding [1] is reported as “no binding”.

“Myc-tagged PDCoV nucleocapsid (N) protein (porcine deltacoronavirus (PDCoV))” was tested, and the binding [2] was “no binding”.

B1: HA-tagged porcine Riplet (pRiplet) (protein, UniProt F1RKW3 1-454)
chain: T2 sequence
For B1, the binding [3] was “no binding” and the binding [4] was “binds”.
